According to patent CN114853902A:
Results are given in words; binding and its absence hold for the method and conditions named. Some entries that bind do so weakly or less than the wild type.

Sequences of proteins named here, by UniProt entry; tags and fusion partners are left off.
UniProt Q9NZQ7: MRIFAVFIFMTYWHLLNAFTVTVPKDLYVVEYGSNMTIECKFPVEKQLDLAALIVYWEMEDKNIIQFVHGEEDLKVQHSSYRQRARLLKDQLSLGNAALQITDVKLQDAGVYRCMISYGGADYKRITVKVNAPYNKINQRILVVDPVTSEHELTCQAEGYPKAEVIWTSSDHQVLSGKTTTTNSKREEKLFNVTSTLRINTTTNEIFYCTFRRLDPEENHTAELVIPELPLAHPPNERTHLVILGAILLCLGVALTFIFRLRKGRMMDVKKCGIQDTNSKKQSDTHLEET

Molecular target: PD-L1 (antigen of the scFv screening) (UniProt Q9NZQ7)
Assay: screening of scFv against PD-L1 (method not described)

B1: PD-L1 scFv抗体 (SEQ ID No.1) (scFv)
scFv: EVKLQESGPSLVRPGASVKISCKASAYSFTSYWMHWVKQRPGQGLDWIGMIDPSDSEARLNQKFKDKATLTVDKSSSTTYIHLSSPTSEDSAVYYCARSYGYDGDYYLDVWGAGTTVTVSSGGGSGGGSGGGSGGGSDIVMTQSPSSLSASLGGKVTITCKASQDINKYIAWYQHKPGKGPRLLIQYTSTLQPGIPSRFSGSGSGRDYSFSISNLEPEDIATYYCLQYDYLRTFGGGTKLEIK
With B1 the binding was “binds”.
